Measurements as given in publication PMC4912613, “A broad analysis of resistance development in the malaria parasite” (Nature Communications, 2016).

Assays:
Assay type in all cases: cell-based, Plasmodium falciparum
[1] = tested on: CYTbQi (cytb G33A, parent Dd2); assay: Cross-resistance EC50 assay, CYTbQi; settings: SYBR green 72 hour assay; synchronized parasites; 384-well format; strain CYTbQi (Dd2 parent)
Description: (§1) To evaluate potential overlapping activity against known antimalarial drug targets, we performed dose-response studies with each compound against our assembled set of drug-resistant lines and their corresponding parents, in an asexual blood stage proliferation assay (Table 1). Comparisons were made to the drug-sensitive strain 3D7 when a parent was unavailable (TM90C2A, W2 and Dd2). As laboratories conducted EC50 assays with different strains and protocols, all comparisons were made between assays from the same laboratory and under the same assay conditions. Compounds displaying >5-fold EC50 shifts relative to the parent or sensitive strain were flagged as having potentially non-novel targets. Average fold shifts per strain ranged from 0.82 to 2.34, with a median of 1.23 indicating there was not common resistance to any one resistant clone. No resistance patterns were observed when classifying the compounds based on chemical structure, but this was not surprising given the diversity of compounds chosen. On the other hand, given that these confirmed compounds were derived from larger unconfirmed hit lists to which some filtration criteria may have been applied (for example, elimination of obvious dihydrofolate reductase inhibitors[32]), some[10][11][12][13] pre-existing bias may exist in the set. […]
(§2) Alternatively, a SYBR Green-based proliferation approach was used for the 72-h assay, as previously described. Briefly, a culture of either synchronized or asynchronous parasitized RBCs (0.3% parasitemia and 4% haematocrit) in screening medium (identical to supplemented medium above except no serum was added) was exposed to serial drug dilutions. Plates were incubated at 37 °C and gassed with 93% N2, 4% CO2 and 3% O2 for 72 h. Following incubation, 10 × SYBR Green I (Invitrogen; supplied in 10,000 × concentration) in lysis buffer ([…], 5 mM EDTA, 0.16% Saponin wt per vol and 1.6% Triton X vol per vol) was added to the wells and the plates were incubated overnight at room temperature before plate reading. EC50 assays were repeated three times, taking the average EC50 value from each assay set, and removing any outliers using a single iteration of Grubbs' test, eliminating values with z-scores above the critical z-value (α=0.05). The raw EC50 values for synchronized parasites assayed in a 384-well format are listed in Supplementary Data 4. The raw EC50 values for asynchronous parasites assayed in a 96 or 1536-well format are listed in Supplementary Data 5.
(§3) EC50 values for each strain were compared with those of the corresponding parent strain to determine fold-shift changes and identify resistance. To minimize the cause variance between assays, all comparisons were conducted between strains assayed under identical conditions. A one-way ANOVA followed by a Dunnet's post-test was conducted in GraphPad Prism to identify significant changes between the parent and resistant strain.

[2] = tested on: GNF449-R2 (PfATP4 I203L and P990R, parent Dd2); assay: Cross-resistance EC50 assay, GNF449-R2; settings: SYBR green 72 hour assay, asynchronized parasites, 96-well or 1536-well format
Description: as §1, §2, §3

PfCRT-Q352R (parent Dd2) = assay: Cross-resistance EC50 assay, PfCRT-Q352R; settings: SYBR green 72 hour assay; synchronized parasites; 384-well format; strain PfCRT:Q352R (Dd2 parent)
Description: as §1, §2, §3

Dd2 = assay: Cross-resistance EC50 assay, Dd2 parent; settings: SYBR green 72 hour assay
Description: (§4) Multidrug resistance alleles, including mutations in P. falciparum chloroquine resistance transporter (pfcrt) and P. falciparum multi-drug resistance transporter 1 (pfmdr1) are very common in field isolates. Therefore, we sought to assess the degree to which pre-existing resistance alleles would contribute to a loss of potency for this diverse collection of small molecule compounds. Fifteen clones derived from three main parent lines were chosen to maximize diversity in mutated pathways and genetic backgrounds, thus representing the variety of resistance seen in the field: 3D7 (ref. [23]), W2 (ref. [24]) or Dd2 (ref. [25]). The 3D7 line originates from the clone of a Netherlands clinical isolate strain[23][26] and is generally considered to be drug sensitive, though it does convey resistance to sulfadoxine. Conversely, W2 (ref. [24], [27]) and Dd2 (ref. [25]) are multi-drug-resistant lines originating from the Indochina III/CDC isolate, which contain point mutations in pfcrt as well as amplifications in pfmdr1 and GTP cyclohydrolase.
as §1, §2, §3

3D7 = assay: Cross-resistance EC50 assay, 3D7 parent / sensitive strain; settings: for 3D7-C9-WT (PARENT) Average Hill Slope: strain 3D7-C9-WT (parent of PfATP4 Mut3)
Description: as §4
To evaluate potential overlapping activity against known antimalarial drug targets, we performed dose-response studies with each compound against our assembled set of drug-resistant lines and their corresponding parents, in an asexual blood stage proliferation assay (Table 1). Comparisons were made to the drug-sensitive strain 3D7 when a parent was unavailable (TM90C2A, W2 and Dd2). As laboratories conducted EC50 assays with different strains and protocols, all comparisons were made between assays from the same laboratory and under the same assay conditions. Compounds displaying >5-fold EC50 shifts relative to the parent or sensitive strain were flagged as having potentially non-novel targets. Average fold shifts per strain ranged from 0.82 to 2.34, with a median of 1.23 indicating there was not common resistance to any one resistant clone. No resistance patterns were observed when classifying the compounds based on chemical structure, but this was not surprising given the diversity of compounds chosen. On the other hand, given that these confirmed compounds were derived from larger unconfirmed hit lists to which some filtration criteria may have been applied (for example, elimination of obvious dihydrofolate reductase inhibitors[32]), some[10][11][12][13] pre-existing bias may exist in the set.
The 48-h assay was carried out in a 96-well format following standard methods using the ^3H-hypoxanthine incorporation assay. The raw EC50 values corresponding to this assay can be found in Supplementary Data 3. Briefly, this assay relies on the parasite incorporation of labelled hypoxanthine that is proportional to P. falciparum growth. A culture of parasitized RBCs (0.5% parasitemia with a percentage of ring stage higher than 70% of total parasitemia, 2.0% haematocrit) in RPMI-1640, […] and 5 μM hypoxanthine was exposed to drug serial dilutions. Plates were incubated for 24 h at 37 °C, 5% CO2, 5% O2 and 90% N2. After 24 h of incubation, ^3H-hypoxanthine was added and plates were incubated for an additional 24-h period. After that, parasites were harvested on a glass fibre filter using a TOMTEC Cell Harvester 96. Filters were dried and melt-on scintillator sheets were used to determine the incorporation of ^3H-hypoxanthine. Radioactivity was measured using a microbeta counter. Data were normalized using the incorporation of the positive (parasitized RBCs without drug) and negative (same culture with artesunate at 2 μM) controls. All assays were conducted in triplicate using three independently grown cultures, and EC50 values were determined using the XLfit add-in module for Excel (version 2.3.1) from Grafit (version 5.3.1.3), where parameter h is the assay hill slope, x is the compound concentration and y is the inhibition of growth effect. The XLfit equation is: […]
Alternatively, a SYBR Green-based proliferation approach was used for the 72-h assay, as previously described. […]

[3] = asynchronized parasites, 96-well or 1536-well format, Dd2 parent
[4] = synchronized parasites, 384-well format, strain Dd2 (parent)
[5] = SYBR green 72 hour assay, asynchronized parasites, 96-well or 1536-well format, 3D7 parent
[6] = SYBR green 72 hour assay, synchronized parasites, 384-well format, strain 3D7 (parent)
[7] = hypoxanthine 48-hour assay, synchronized parasites, 96-well format, strain 3D7 (parent)
[8] = hypoxanthine 48-hour assay, synchronized parasites, 96-well format

SMILES | CYTbQi (Dd2 Parent) Average Hill Slope [1] | GNF449-R2 (Dd2 Parent) Average Hill Slope [2] | PfCRT:Q352R (Dd2 Parent) Average Hill Slope (PfCRT-Q352R (parent Dd2)) | Dd2 (PARENT) Average Hill Slope (Dd2; [3]) | Dd2 (PARENT) Average Hill Slope (Dd2; [4]) | 3D7 (PARENT) Average Hill Slope (3D7; [5]) | 3D7 (PARENT) Average Hill Slope (3D7; [6]) | 3D7 (PARENT) Average Hill Slope (3D7; [7]) | 3D7-C9-WT (PARENT) Average Hill Slope (3D7; [8])
CN1CCN(c2ccc(Nc3c4ccccc4nc4ccccc34)cc2)CC1 [MMV006172] | 2.74 | 2.67 | 7.06 | 2.20 | 4.96 | 5.17 | 7.45 | 7.49 | 3.84
O=C(Nc1ccc(Cl)c(Cl)c1)Nc1ccc(Cl)c(Cl)c1 [MMV665852] | 6.12 | 2.89 | 4.49 | 3.14 | 3.83 | 1.58 | 3.64 | 2.32 | –
CCCCCCCN(Cc1ccc(OC(C)(C)C(=O)OCC)cc1)C(=O)Nc1ccc(Cl)cc1OCC [MMV021735] | 4.10 | 1.23 | 4.13 | 2.05 | 3.91 | 2.86 | 4.30 | 3.69 | 2.10
O=C(Nc1ccccc1O)c1ccc(Oc2cccc(C(=O)Nc3ccccc3O)c2)cc1 [MMV665888] | 3.84 | 1.41 | 2.99 | 2.12 | 2.93 | 1.11 | 3.39 | 1.69 | –
c1cc(-c2cnc3ccc(-c4ccc(N5CCOCC5)cc4)nn23)ccn1 [MMV668311] | 13.7 | 1.34 | 7.44 | 1.01 | 6.74 | 1.55 | 6.79 | 7.45 | 2.37
